Toxic doses and inconclusive results are not listed. Rule as the data show it: active = T/C of 150% or more; inactive = T/C below 125%.
System: L1210 leukemia ip in BDF1 mice, survival T/C
Assay: NCI In Vivo Anticancer Drug Screen. Data for tumor model L1210 Leukemia (intraperitoneal) in B6D2F1 (BDF1) mice
Details: endpoint: mean survival time, higher = longer survival
In short: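 In this screen, tumor-bearing mice given compound are compared to those given vehicle, and their survival values are reported as a treated-to-control quotient.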

Measured: T/C

CCCC(NC(=O)OC(C)(C)C)C(=O)O (stereo unspecified)
inactive: dose: 75.0 mg/kg/injection, schedule: Q01DX009 (ip), vehicle: saline with Tween-80 = 98 % of control | dose: 100.0 mg/kg/injection, schedule: Q04DX002 (ip), vehicle: Klucel (hydroxypropylcellulose) (HPC) 111 % of control | dose: 150.0 mg/kg/injection, schedule: Q01DX009 (ip), vehicle: saline with Tween-80 = 94 % of control | dose: 200.0 mg/kg/injection, schedule: Q04DX002 (ip), vehicle: Klucel (hydroxypropylcellulose) (HPC) 97 % of control | dose: 300.0 mg/kg/injection, schedule: Q01DX009 (ip), vehicle: saline with Tween-80 = 102 % of control | dose: 400.0 mg/kg/injection, schedule: Q04DX002 (ip), vehicle: Klucel (hydroxypropylcellulose) (HPC) 101 % of control

— PubChem BioAssay AID248 (DTP/NCI, 2004)
